Measurements reported in PubChem BioAssay AID504784 (Drosophila RNAi Screening Center, 2011).
The screen tested about 17,000 reagents; shown is an unselected part of those that have a named target and a result. 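Each column is one replicate's B-score; the combined score over replicates was not deposited, so single values may mislead.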 Names joined by + are all predicted targets of the reagent. Further read-outs or replicates are left out here.

Screen: 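Fly genes whose silencing alters how much lipid cells keep in droplets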 (primary screen)
System: Drosophila Kc167 embryonic cells
Reagent: long dsRNA against Drosophila genes, about 250 ng dsRNA per well
Time to read-out: 4 days
Challenge: cells fed 400 µM oleic acid bound to BSA
Measured: 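Cells imaged and segmented; ratio of lipid droplet area to nuclear area, log-transformed, then normalised as a B-score over the screen; higher means more stored lipid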
Scale: droplet/nuclear area B-score: higher = more stored lipid (overstorage)

CG42380 + CG42379 + PIG-M + 1 more [DRSC03884]: droplet/nuclear area B-score, replicate 1 = 3.49
CG42380 + CG42379 + PIG-M + 1 more [DRSC04580]: droplet/nuclear area B-score, replicate 1 = 1.16
fws (GeneID 35054) [DRSC02969]: droplet/nuclear area B-score, replicate 1 = -0.145
Sec3 (GeneID 39940) [DRSC10384]: droplet/nuclear area B-score, replicate 1 = -0.157
mgl (GeneID 8674055) [DRSC17800]: droplet/nuclear area B-score, replicate 1 = -0.485
mgl (GeneID 8674055) [DRSC17823]: droplet/nuclear area B-score, replicate 1 = -0.0201
mgl (GeneID 8674055) [DRSC17859]: droplet/nuclear area B-score, replicate 1 = -1.78
mgl (GeneID 8674055) [DRSC18004]: droplet/nuclear area B-score, replicate 1 = -0.256
asrij (GeneID 37637) [DRSC04175]: droplet/nuclear area B-score, replicate 1 = -0.447
Xbp1 (GeneID 44226) [DRSC04553]: droplet/nuclear area B-score, replicate 1 = 0.21
Xbp1 (GeneID 44226) [DRSC21624]: droplet/nuclear area B-score, replicate 1 = -0.0265
CG18558 (GeneID 33482) [DRSC00525]: droplet/nuclear area B-score, replicate 1 = -0.347
CG18558 (GeneID 33482) [DRSC21593]: droplet/nuclear area B-score, replicate 1 = -0.391
CG9951 (GeneID 39888) [DRSC11105]: droplet/nuclear area B-score, replicate 1 = -0.11
CG1998 (GeneID 32300) [DRSC19829]: droplet/nuclear area B-score, replicate 1 = -0.24
CG10702 (GeneID 35181) [DRSC02097]: droplet/nuclear area B-score, replicate 1 = -0.0367
Isha (GeneID 37411) [DRSC04456]: droplet/nuclear area B-score, replicate 1 = 0.206
His1:CG33816 + His1:CG33828 + His1:CG33819 + 21 more [DRSC21266]: droplet/nuclear area B-score, replicate 1 = -0.107
Uhg2 + snoRNA:Me18S-G1620 + snoRNA:U14:30Ea [DRSC01100]: droplet/nuclear area B-score, replicate 1 = 1.22
ATPsynO (GeneID 41845) [DRSC16780]: droplet/nuclear area B-score, replicate 1 = 0.000816
esn (GeneID 53557) [DRSC05039]: droplet/nuclear area B-score, replicate 1 = -0.0534
esn (GeneID 53557) [DRSC07612]: droplet/nuclear area B-score, replicate 1 = 0.669
whd (GeneID 36109) [DRSC07351]: droplet/nuclear area B-score, replicate 1 = -2.36
Ogg1 (GeneID 31806) [DRSC17738]: droplet/nuclear area B-score, replicate 1 = -1.95
CG18081 (GeneID 39725) [DRSC10294]: droplet/nuclear area B-score, replicate 1 = -0.05
kraken (GeneID 33265) [DRSC00824]: droplet/nuclear area B-score, replicate 1 = 0.266
E(var)3-9 (GeneID 41073) [DRSC14451]: droplet/nuclear area B-score, replicate 1 = -0.477
E(var)3-9 (GeneID 41073) [DRSC23242]: droplet/nuclear area B-score, replicate 1 = 0.645
Rab5 (GeneID 33418) [DRSC00777]: droplet/nuclear area B-score, replicate 1 = 0.792
Nelf-E (GeneID 38982) [DRSC10567]: droplet/nuclear area B-score, replicate 1 = 0.107
BI-1 (GeneID 38936) [DRSC10782]: droplet/nuclear area B-score, replicate 1 = 1.86
CG8541 (GeneID 38838) [DRSC10989]: droplet/nuclear area B-score, replicate 1 = -0.454
knon (GeneID 36845) [DRSC07049]: droplet/nuclear area B-score, replicate 1 = -0.0156
mRpL14 (GeneID 31222) [DRSC18597]: droplet/nuclear area B-score, replicate 1 = -0.49
CG43317 (GeneID 41916) [DRSC15000]: droplet/nuclear area B-score, replicate 1 = 1.29
Polr3C (GeneID 41542) [DRSC14490]: droplet/nuclear area B-score, replicate 1 = 0.111
CG8031 (GeneID 41601) [DRSC16364]: droplet/nuclear area B-score, replicate 1 = 0.935
CG12902 (GeneID 36092) [DRSC06217]: droplet/nuclear area B-score, replicate 1 = -0.389
dpr16 (GeneID 40619) [DRSC12217]: droplet/nuclear area B-score, replicate 1 = -0.000326
dpr16 (GeneID 40619) [DRSC12249]: droplet/nuclear area B-score, replicate 1 = 1.6
